Tests used:
[1] = SOMAscan serum proteomics in NASH subjects treated with selonsertib/simtuzumab, baseline and week 24; design: species or system human; details: serum protein marker level, week 24 vs baseline
[2] = ELISA assays of circulating NASH secretome candidates, AUROC analysis; design: species or system human
[3] = lobular inflammation non-improvers
[4] = hepatic ballooning non-improvers
[5] = CRN fibrosis stage non-improvers

Substance	Median percent CHG at W24 in improver ([1]; hepatic ballooning improvers) [%]	Median percent CHG at W24 in Non-improver [1, 4] [%]	Median percent CHG at W24 in improver ([1]; CRN fibrosis stage improvers) [%]	Median percent CHG at W24 in Non-improver [1, 5] [%]	also measured
PHI	–	–	–	–	Median percent CHG at W24 in improver ([1]; lobular inflammation improvers): −30.06%; Median percent CHG at W24 in Non-improver [1, 3]: −5.37%
CD63	4.6	−1.285	–	–	–
Laminin	−8.68	2.15	–	–	–
Cathepsin D	−15.96	4.95	–	–	Median percent CHG at W24 in improver ([1]; lobular inflammation improvers): −14.74%; Median percent CHG at W24 in Non-improver [1, 3]: 4.99%
Tropomyosin 2	4.09	−0.98	–	–	–
IGFBP-5	6.44	−0.695	–	–	–
VEGF sR2	4.03	−1.275	–	–	–
calgranulin B	−28.5	−11.515	–	–	–
TrkA	5.74	−2.235	–	–	–
GP1BA	–	–	1.52	−4.35	–
BAFF	−7.94	2.16	–	–	–
Osteopontin	1.79	−1.54	–	–	–
GDF2	−21.82	−10.91	–	–	–
JAG1	0.16	2.6	–	–	–
Integrin a1b1	–	–	–	–	Median percent CHG at W24 in improver ([1]; lobular inflammation improvers): −34.885%; Median percent CHG at W24 in Non-improver [1, 3]: −5.31%; Median percent CHG at W24 in improver ([1]; steatosis improvers): −41.26%; Median percent CHG at W24 in Non-improver ([1]; steatosis non-improvers): −5.025%
Adrenomedullin	−5.44	1.22	–	–	–
IL-1a	–	–	−4.67	−0.12	–
PCSK9	–	–	8.12	−2.85	–
PSMA	–	–	−6.53	1.42	–
RNase H1	−4.06	0.585	2.2	−2.6	–
PSD7	−0.75	1.45	–	–	–
HGF	−9.9	−4.445	–	–	–
MP2K2	10.3	1.985	–	–	–
PIK3CA/PIK3R1	–	–	–	–	Median percent CHG at W24 in improver ([1]; lobular inflammation improvers): −13.095%; Median percent CHG at W24 in Non-improver [1, 3]: −2.3%
LTBP4	−5.93	2.525	–	–	–
pTEN	−5.01	−0.705	2.32	−4.94	–
ACE2	–	–	–	–	Median percent CHG at W24 in improver ([1]; lobular inflammation improvers): 2.605%; Median percent CHG at W24 in Non-improver [1, 3]: −2.05%
STAT3	−8.59	−4.58	–	–	–

Substance	Median percent CHG at W24 in improver ([1]; hepatic ballooning improvers) [%]	Median percent CHG at W24 in Non-improver [1, 4] [%]	Median percent CHG at W24 in improver ([1]; CRN fibrosis stage improvers) [%]	Median percent CHG at W24 in Non-improver [1, 5] [%]	also measured
Granzyme B	–	–	2.74	−1.2	–
NEUREGULIN-1	–	–	6.86	−0.69	–
IL-8	–	–	–	–	Median percent CHG at W24 in improver ([1]; lobular inflammation improvers): −15.795%; Median percent CHG at W24 in Non-improver [1, 3]: −4.72%
TNFSF15	–	–	−2.49	2.31	–
b-Endorphin	–	–	2.33	-0.56	–
Eotaxin	–	–	–	–	Median percent CHG at W24 in improver ([1]; lobular inflammation improvers): 15.185%; Median percent CHG at W24 in Non-improver [1, 3]: 4.34%
TSP2	–	–	–	–	Median percent CHG at W24 in improver ([1]; steatosis improvers): −25.59%; Median percent CHG at W24 in Non-improver ([1]; steatosis non-improvers): 21.215%
Lumican	–	–	–	–	Median percent CHG at W24 in improver ([1]; steatosis improvers): −6.81%; Median percent CHG at W24 in Non-improver ([1]; steatosis non-improvers): 4.69%
TIMD3	–	–	–	–	Median percent CHG at W24 in improver ([1]; steatosis improvers): −8.75%; Median percent CHG at W24 in Non-improver ([1]; steatosis non-improvers): 4.615%
IL-17F	4.93	−1.62	–	–	–
carbonic anhydrase II	–	–	4.59	−2	–
YES	–	–	–	–	Median percent CHG at W24 in improver ([1]; steatosis improvers): −11.71%; Median percent CHG at W24 in Non-improver ([1]; steatosis non-improvers): −0.1%
YKL-40	–	–	–	–	Median percent CHG at W24 in improver ([1]; steatosis improvers): −14.29%; Median percent CHG at W24 in Non-improver ([1]; steatosis non-improvers): 13.28%; Median percent CHG at W24 in Non-improver ([2]; clinical endpoint Inflammation): 4.3%; Median percent CHG at W24 in improver ([2]; clinical endpoint Inflammation): −22%; Median percent CHG at W24 in Non-improver ([2]; clinical endpoint MRIPDFF): 6.5%; Median percent CHG at W24 in improver ([2]; clinical endpoint MRIPDFF): −22%; Median percent CHG at W24 in Non-improver ([2]; clinical endpoint NAS score): 0.5%; Median percent CHG at W24 in improver ([2]; clinical endpoint NAS score): −23.9%; Median percent CHG at W24 in Non-improver ([2]; clinical endpoint Steatosis): 10.8%; Median percent CHG at W24 in improver ([2]; clinical endpoint Steatosis): −22.9%
TrkC	–	–	−4.72	3.16	–
M-CSF R	–	–	–	–	Median percent CHG at W24 in improver ([1]; lobular inflammation improvers): −12.625%; Median percent CHG at W24 in Non-improver [1, 3]: 5.72%
PLXB2	−3.7	3.24	–	–	–
Collectin Kidney 1	−13.64	−1.64	–	–	–
MAPK14	−5.45	−0.58	–	–	–
SSRP1	–	–	−0.48	−1.51	–
EPO-R	–	–	–	–	Median percent CHG at W24 in improver ([1]; lobular inflammation improvers): 2.2%; Median percent CHG at W24 in Non-improver [1, 3]: −1.13%
LRP8	–	–	−2.81	1.37	–
Coagulation Factor IX	–	–	0.35	6.7	–
TGF-b3	–	–	2.97	−0.94	–
SCF	–	–	–	–	Median percent CHG at W24 in Non-improver ([2]; clinical endpoint Ballooning): 1.9%; Median percent CHG at W24 in improver ([2]; clinical endpoint Ballooning): 7.4%
Integrin aVb5	−5.42	1.765	–	–	–
Epo	1.25	18.195	–	–	–
MMP-3	–	–	2.97	12.69	–

Reference: patent US20200340060A1, “COMPOSITIONS AND METHODS FOR IDENTIFYING AND TREATING LIVER DISEASES AND MONITORING TREATMENT OUTCOMES” (Gilead Sciences, Inc., priority 2017, published 2020)
